This is an account of results in paper PMC6753678, “Fueling Open Innovation for Malaria Transmission-Blocking Drugs: Hundreds of Molecules Targeting Early Parasite Mosquito Stages” (Frontiers in Microbiology, 2019).

The structures appear in SMILES notation.

One data set relates to P. berghei ookinete development.
Details: not given
Regarding `COc1cc(OC)nc(C(Sc2ccc(NC(=O)c3cccs3)cc2)c2ccccc2)n1` (stereo not shown) [TCMDC-124257], the “Assay tox ratio Pb ODA” value is on record as 102.76.

With `C=C[C@H]1CN(CCCCCCC)CC[C@H]1CC(=O)Nc1cnnc2ccc(OC)cc12.O=C(O)C(=O)O` [TCMDC-139791], the “Assay tox ratio Pb ODA” value is 12.24. For the molecule `Cc1ccc(C2(CN3CCC(NC(=O)c4[nH]ncc4Cl)CC3)CCCCC2)cc1` [TCMDC-124838], the “Assay tox ratio Pb ODA (red: <10-fold selectivity; green: >10-fold)” value is recorded as 18.99. As for `Cc1sc2ncnc(Sc3nc4ccccc4[nH]3)c2c1C` [TCMDC-123835], the “Assay tox ratio Pb ODA” value was found to be 108.87. The same measure, in the same setting: the value for `CCc1cc2c(Sc3nc4ccccc4[nH]3)ncnc2s1` [TCMDC-124553] was 100.17. As to `Cc1cc(=O)c(-c2ccc(Oc3cccc(OC(F)(F)F)c3)cc2)c(C)[nH]1` [TCMDC-137266], the “Assay tox ratio Pb ODA (red: <10-fold selectivity; green: >10-fold)” value amounted to 52.30. Still for that read-out and setting: in the case of `Cc1noc(C)c1-c1ccc2c(Nc3ccc(Cl)cc3)c(C(N)=O)cnc2c1.Cl` [TCMDC-136010] it was 0.73. In the case of `Cc1[nH]c2ccc(-c3ccccc3)cc2c(=O)c1Br` [TCMDC-135426], the “Assay tox ratio Pb ODA” value was determined as 79.75.

As for `CCC(C)CN1CCN(c2ccc(NC(=O)c3cccs3)cc2)C(C)C1.O=C(O)C(F)(F)F` (stereo not shown) [TCMDC-134996], the “Assay tox ratio Pb ODA (red: <10-fold selectivity; green: >10-fold)” value worked out at 57.41. Consider `CN(Cc1cccc(F)c1)C1CCN(c2cc(NC(=O)c3ccc(F)cc3)ccn2)CC1.O=C(O)C(F)(F)F` [TCMDC-135018], for which the “Assay tox ratio Pb ODA” value was determined as 0.0228. Still for that read-out and setting: in the case of `Cl.c1ccc(Oc2ccc(Nc3nncc4ccccc34)cc2)cc1` [TCMDC-137229] it was 144.57. `Cc1cccc2nc(-c3ccc(-c4ccc(CN5CCCC(O)C5)cc4)cc3)[nH]c12.O=C(O)C(F)(F)F` (stereo not shown) [TCMDC-133826]: the “Assay tox ratio Pb ODA (red: <10-fold selectivity; green: >10-fold)” value is listed as 1.39. In the case of `CCN(CC)c1nc(N)c2c(N)nc3c(c2c1C#N)C(=O)CN3Cc1ccccc1` [TCMDC-125024], the “Assay tox ratio Pb ODA” value is 161.75. Same read-out and setting: in the case of `COc1ccc(-c2nc3c(N)nc(N)nc3nc2-c2ccccc2Cl)cc1.COc1ccc(-c2nc3nc(N)nc(N)c3nc2-c2ccccc2Cl)cc1.Cl` [TCMDC-138100] it was 8.88; in that of `CCCCCCCCc1c(C)[nH]c(C)c(Cl)c1=O` [TCMDC-137538], 36.47; in that of `Cc1c2ccncc2c(C)c2c1[nH]c1ccccc12` [TCMDC-125546], 2.87. On the same count and under the same terms, the value for `CCn1c(C)cc(C=C2SC(=Nc3ccccc3)NC2=O)c1C` [TCMDC-124456] was 96.79; that for `CN(C)CCN(C)C(=O)c1cc(-c2ccncc2)c(-c2ccc(Cl)c(O)c2)o1.Cl` [TCMDC-141393] was 30.73. As for `Cc1[nH]c(C)c(-c2csc3ccccc23)c(=O)c1Cl` [TCMDC-136017], the “Assay tox ratio Pb ODA” value is given as 54.23. Consider `Cc1cc(C)cc(-n2c(C)cc(/C=C3\SC(=Nc4ccc(Cl)cc4)NC3=O)c2C)c1` [TCMDC-124103], for which the “Assay tox ratio Pb ODA” value is on record as 178.36. Turning to `CC1CN(Cc2cccc(F)c2)CCN1c1ccc(NC(=O)c2cccs2)cc1.O=C(O)C(F)(F)F` (stereo not shown) [TCMDC-135009], the “Assay tox ratio Pb ODA (red: <10-fold selectivity; green: >10-fold)” value stood at 285.98. As to `Cc1nc(C)c(-c2ccc(Oc3ccc(OC(F)(F)F)cc3)cc2)c(OC(=O)c2ccccc2)c1Cl` [TCMDC-137380], the “Assay tox ratio Pb ODA (red: <10-fold selectivity; green: >10-fold)” value is 43.71.

For `CCOC(=O)c1c(CN2CCCC2)n(-c2ccccc2)c2cc(Br)c(O)cc12` [TCMDC-124122], the “Assay tox ratio Pb ODA” value is listed as 9.23. Still for that read-out and setting: the value for `COc1ccc(Cl)cc1NC(=O)CN(C)C(=O)c1cnn(-c2ccccc2)n1` [TCMDC-125457] was 19.57.

On to `O=C(c1ccco1)N1CCN(c2ccc([N+](=O)[O-])c(NC3CC3)c2)CC1` [TCMDC-125397], for which the “Assay tox ratio Pb ODA” value is 1.76. For the molecule `Nc1nc(N)c2c(ccc3c2cnn3Cc2cccnc2)n1` [TCMDC-131932], the “Assay tox ratio Pb ODA (red: <10-fold selectivity; green: >10-fold)” value is on record as 0.023. As for `Cc1[nH]c(C)c(C2CCC(c3ccc(Cl)cc3)CC2)c(=O)c1Cl` (stereo not shown) [TCMDC-137423], the “Assay tox ratio Pb ODA” value is given as 29.67. On the same count and under the same terms, the value for `CCCCOc1cc2ncc(C(=O)OCC)c(O)c2cc1OCCCC` [TCMDC-137523] was 45.70.

As to `CC(=O)Oc1c(Cl)c(C)nc(C)c1-c1ccc(Oc2ccc(OC(F)(F)F)cc2)cc1` [TCMDC-137385], the “Assay tox ratio Pb ODA (red: <10-fold selectivity; green: >10-fold)” value is reported as 31.26. In the case of `CC(O)C(C)(CO)NCc1ccc2c3c(cccc13)-c1ccccc1-2.Cl` (stereo not shown) [TCMDC-138117], the “Assay tox ratio Pb ODA” value stood at 7.35. `Br.CC[C@H]1CN2CCc3cc(OC)c(OC)cc3[C@@H]2C[C@@H]1C[C@H]1NCCc2c1cc(OC)c(O)c2I` [TCMDC-131829]: the “Assay tox ratio Pb ODA (red: <10-fold selectivity; green: >10-fold)” value is reported as 13.20. Turning to `COc1cc(F)c2ncc(Cl)c(CCN3CCC(NCc4ccc5c(c4)NC(=O)CS5)CC3)c2c1.Cl` [TCMDC-135620], the “Assay tox ratio Pb ODA” value was 22.68. Consider `COc1nc2c(CCN3CCC(NCc4ccc5c(c4)NCCO5)CC3)c(Cl)cnc2cc1F.Cl` [TCMDC-135768], for which the “Assay tox ratio Pb ODA (red: <10-fold selectivity; green: >10-fold)” value came to 4.09. On the same count and under the same terms, in the case of `COc1ccc2nccc([C@@H](O)CN3CCC(NCc4cc5c(F)ccc(F)c5[nH]4)CC3)c2n1.CS(=O)(=O)O` [TCMDC-140749] it was 4.32.

Consider `CC1CN(Cc2ccccc2)CCN1c1ccc(NC(=O)c2cccs2)cc1.O=C(O)C(F)(F)F` (stereo not shown) [TCMDC-135005], for which the “Assay tox ratio Pb ODA (red: <10-fold selectivity; green: >10-fold)” value came to 78.57.

Consider `CC(=O)Nc1ccc(Nc2c3ccccc3nc3ccccc23)cc1` [TCMDC-124356], for which the “Assay tox ratio Pb ODA” value amounted to 23.64. On the same count and under the same terms, the value for `ON=C1CCc2cc(-c3cc(-c4ccc(OC5CCNCC5)cc4)oc3-c3ccncc3)ccc21` [TCMDC-141381] was 4.19; that for `Cc1[nH]c2ccc(-c3ccc(N(C)C)cc3)cc2c(=O)c1Cl` [TCMDC-136188] was 182.70; that for `CN1CCN(c2ccc(Nc3nccc(-c4cnn5ncccc45)n3)cc2Cl)CC1` [TCMDC-138688] was 25.93. On to `COc1ccc(Cc2c(N)nc3nc(N)nc(N)c3c2C)cc1.Cl` [TCMDC-138061], for which the “Assay tox ratio Pb ODA (red: <10-fold selectivity; green: >10-fold)” value was 0.0106.

The data set is the same for the next values; noted with them: unified cytotox / IC50; <10-fold red, >10-fold green.
In the case of `COc1ccc2nccc([C@@H](O)CN3CCC(NCc4cc5c(F)ccc(F)c5[nH]4)CC3)c2c1.O=C(O)C(=O)O` [TCMDC-140739], the “Assay tox ratio Pb ODA” value is recorded as 5.31. On the same count and under the same terms, in the case of `CC(C)(CN)c1cc(-c2ccc(Cl)c(O)c2)c(-c2ccncc2)o1.Cl` [TCMDC-141334] it was 11.04; in that of `COCCn1c(-c2cccc(Cl)c2)nn(-c2ccc([N+](=O)[O-])cc2C#N)c1=S` [TCMDC-134719], 54.21; in that of `COc1ccc2nccc([C@@H](O)CN3CCC(NCc4cc5ccccc5nc4O)CC3)c2c1.Cl` [TCMDC-140759], 24.33. Same read-out and setting: the value for `COc1ccc2ncc(C#N)c(CCN3CCC(NCc4ccc5c(n4)NC(=O)CS5)CC3)c2n1.Cl` [TCMDC-135188] was 71.52. Same read-out and setting: the value for `COc1ccc2ncc(C)c(CCN3CCC(NCc4ccc5c(n4)NC(=O)CS5)CC3)c2c1.Cl` [TCMDC-134648] was 13.59.

`CCc1cc2c3c(N)nc(N)nc3ccc2n1C(C)CC` (stereo not shown) [TCMDC-137308]: the “Assay tox ratio Pb ODA” value came to 0.00245.

Take `CCc1cc2c3c(N)nc(N)nc3ccc2n1C(C)(C)C` [TCMDC-137306]: the “Assay tox ratio Pb ODA” value worked out at 0.00157. On the same count and under the same terms, in the case of `Cc1[nH]c(C)c(-c2ccc(Oc3ccccc3)cc2)c(=O)c1Br` [TCMDC-137410] it was 1025.09; in that of `Cc1[nH]c(C)c(-c2ccc(-c3ccc(C(F)(F)F)cc3C(F)(F)F)nc2)c(=O)c1Br` [TCMDC-136013], 39.99; in that of `Cc1[nH]c(C)c(-c2ccc(OCc3cc(C(F)(F)F)cc(C(F)(F)F)c3)nc2)c(=O)c1Br` [TCMDC-135815], 5.80. Same read-out and setting: in the case of `Cc1[nH]c(C)c(-c2ccc(-c3ccc4c(c3)OCO4)nc2)c(=O)c1Br` [TCMDC-136161] it was 69.74; in that of `Cc1[nH]c(C)c(-c2ccc(-c3cccc(OC(F)(F)F)c3)nc2)c(=O)c1Cl` [TCMDC-136286], 28.10.

Take `Cc1[nH]c2ccccc2c1C(=O)C(C)Sc1n[nH]c(-c2ccccc2Br)n1` (stereo not shown) [TCMDC-125114]: the “Assay tox ratio Pb ODA” value was determined as 429.88. For the molecule `Cc1[nH]c(C)c(-c2ccc(OCc3cc(C(F)(F)F)cc(C(F)(F)F)c3)nc2)c(=O)c1Cl` [TCMDC-135814], the “Assay tox ratio Pb ODA” value is on record as 10.31.

For the molecule `Cc1[nH]c(C)c(-c2ccc(OCc3cccc(C(F)(F)F)c3)nc2)c(=O)c1Br` [TCMDC-135656], the “Assay tox ratio Pb ODA” value stood at 80.90. The same measure, in the same setting: the value for `CCn1c(C(C)C)cc2c3c(N)nc(N)nc3ccc21` [TCMDC-137856] was 0.00513. The same measure, in the same setting: in the case of `Cc1[nH]c(C)c(-c2ccc(CCc3ccc(N)cc3)cc2)c(=O)c1Cl` [TCMDC-135678] it was 91.51. The same measure, in the same setting: in the case of `Cc1[nH]c(C)c(-c2ccc(-c3ccc(OCC(F)(F)F)cc3)nc2)c(=O)c1Cl` [TCMDC-132306] it was 80.43; in that of `Cc1[nH]c(C)c(-c2ccc(/C=C/c3ccccn3)cc2)c(=O)c1Cl` [TCMDC-135787], 95.28. As for `COc1ccc2nccc([C@@H](O)CN3CCC(NCCOc4cc(C(F)(F)F)ccc4F)CC3)c2c1.O=C(O)C(=O)O` [TCMDC-140658], the “Assay tox ratio Pb ODA” value is 0.00107. Still for that read-out and setting: in the case of `Cc1cc(O)c(-c2ccc(Oc3ccc(F)cc3)cc2)c(C)n1` [TCMDC-137535] it was 0.48; in that of `Cc1[nH]c(C)c(-c2ccc(-c3ccc(OC(F)(F)F)cc3)nc2)c(=O)c1Cl` [TCMDC-135677], 89.34. On the same count and under the same terms, in the case of `Nc1nc(N)c2c(ccc3c2ccn3CCCF)n1` [TCMDC-138623] it was 0.58; in that of `Oc1c(C(Nc2nc3ccccc3s2)c2ccccc2)ccc2cccnc12` (stereo not shown) [TCMDC-125565], 0.59. In the case of `Cl.O=C1CSc2ccc(CNC3CCN(CCc4c(Cl)cnc5ccc(F)cc45)CC3)nc2N1` [TCMDC-141960], the “Assay tox ratio Pb ODA” value is given as 12.78. For the molecule `Cc1cc(=O)c(-c2ccc(Oc3cccc(Cl)c3)cc2)c(C)[nH]1` [TCMDC-137265], the “Assay tox ratio Pb ODA” value is on record as 2.91.
